Experimental data: publication PMC12152899, “Disulfide-mediated tetramerization of TRAP1 fosters its antioxidant and pro-neoplastic activities” (Redox Biology, 2025)
No constants are given. Whether binding was seen depends on the method and setting. Some results given as binding are weak or reduced against the parent protein; the word gives no strength. Each block holds one binder with its values, some of them ahead of it.

Tests used:
[1] = target: endogenous TRAP1 of human A375 melanoma cells (human (endogenous in A375)) (UniProt Q12931); assay: non-reducing SDS-PAGE and Western blot; as a5, with DTT to reduce disulfides
[2] = target: endogenous TRAP1 of human A375 melanoma cells (human (endogenous in A375)) (UniProt Q12931); assay: non-reducing SDS-PAGE and Western blot; mitochondrial extracts of A375 cells treated with 100 μM H2O2 (30 min), 1 mM diamide (30 min) or 10 μM oligomycin (4 h), alone or combined; anti-TRAP1 blot; high-molecular-weight form
[3] = target: recombinant human TRAP1 C501S/C527A double mutant (human) (UniProt Q12931); assay: non-reducing SDS-PAGE; as a1, H2O2-treated recombinant TRAP1 with DTT added (10 mM in the legend, 50 mM in the methods); both purified
[4] = target: recombinant human TRAP1 C573R (human) (UniProt Q12931); assay: as above
[5] = target: recombinant human TRAP1 C261S (human) (UniProt Q12931); assay: as above
[6] = target: recombinant human TRAP1 C261S/C573R double mutant (human) (UniProt Q12931); assay: non-reducing SDS-PAGE; purified recombinant TRAP1, DTT removed, 150 mM NaCl, 50 mM TRIS, pH 7.5, 37 °C, 100 μM H2O2 for 30 min (1 nM to 100 μM in Fig. 1B); disulfide-linked band above 170 kDa; Coomassie or stain-free; both purified
[7] = target: recombinant human TRAP1 C261S/C573R double mutant (human) (UniProt Q12931); assay: SEC; Superdex 200 HR 10/30, 20 mM TRIS, 150 mM NaCl, pH 7; recombinant TRAP1 incubated with 100 μM H2O2; additional peak beside the dimer; dimers to tetramer; both purified

binding [3]: no binding (condition: with DTT)
B2: recombinant human TRAP1 C501S/C527A double mutant (natural protein, UniProt Q12931 60-704, looked up)
chain: STQTAEDKEEPLHSIISSTESVQGSTSKHEFQAETKKLLDIVARSLYSEKEVFIRELISNASDALEKLRHKLVSDGQALPEMEIHLQTNAEKGTITIQDTGIGMTQEELVSNLGTIARSGSKAFLDALQNQAEASSKIIGQFGVGFYSAFMVADRVEVYSRSAAPGSLGYQWLSDGSGVFEIAEASGVRTGTKIIIHLKSDCKEFSSEARVRDVVTKYSNFVSFPLYLNGRRMNTLQAIWMMDPKDVREWQHEEFYRYVAQAHDKPRYTLHYKTDAPLNIRSIFYVPDMKPSMFDVSRELGSSVALYSRKVLIQTKATDILPKWLRFIRGVVDSEDIPLNLSRELLQESALIRKLRDVLQQRLIKFFIDQSKKDAEKYAKFFEDYGLFMREGIVTATEQEVKEDIAKLLRYESSALPSGQLTSLSEYASRMRAGTRNIYYLSAPNRHLAEHSPYYEAMKKKDTEVLFAFEQFDELTLLHLREFDKKKLISVETDIVVDHYKEEKFEDRSPAAECLSEKETEELMAWMRNVLGSRVTNVKVTLRLDTHPAMVTVLEMGAARHFLRMQQLAKTQEERAQLLQPTLEINPRHALIKKLNQLRASEPGLAQLLVDQIYENAMIAAGLVDDPRAMVGRLNELLVKALERH
notes: Cloned in pET-26b(+); same construct as m1 with the mutations; source: E. coli BL21(DE3), purified (Ni-NTA)

binding [4]: no binding (condition: with DTT)
B3: recombinant human TRAP1 C573R (natural protein, UniProt Q12931 60-704, looked up)
chain: STQTAEDKEEPLHSIISSTESVQGSTSKHEFQAETKKLLDIVARSLYSEKEVFIRELISNASDALEKLRHKLVSDGQALPEMEIHLQTNAEKGTITIQDTGIGMTQEELVSNLGTIARSGSKAFLDALQNQAEASSKIIGQFGVGFYSAFMVADRVEVYSRSAAPGSLGYQWLSDGSGVFEIAEASGVRTGTKIIIHLKSDCKEFSSEARVRDVVTKYSNFVSFPLYLNGRRMNTLQAIWMMDPKDVREWQHEEFYRYVAQAHDKPRYTLHYKTDAPLNIRSIFYVPDMKPSMFDVSRELGSSVALYSRKVLIQTKATDILPKWLRFIRGVVDSEDIPLNLSRELLQESALIRKLRDVLQQRLIKFFIDQSKKDAEKYAKFFEDYGLFMREGIVTATEQEVKEDIAKLLRYESSALPSGQLTSLSEYASRMRAGTRNIYYLCAPNRHLAEHSPYYEAMKKKDTEVLFCFEQFDELTLLHLREFDKKKLISVETDIVVDHYKEEKFEDRSPAAERLSEKETEELMAWMRNVLGSRVTNVKVTLRLDTHPAMVTVLEMGAARHFLRMQQLAKTQEERAQLLQPTLEINPRHALIKKLNQLRASEPGLAQLLVDQIYENAMIAAGLVDDPRAMVGRLNELLVKALERH
notes: Cloned in pET-26b(+); same construct as m1 with the mutation; source: E. coli BL21(DE3), purified (Ni-NTA)

More lines, now with the values behind:

B1: endogenous TRAP1 of human A375 melanoma cells (protein, UniProt Q12931 60-704)
chain: STQTAEDKEEPLHSIISSTESVQGSTSKHEFQAETKKLLDIVARSLYSEKEVFIRELISNASDALEKLRHKLVSDGQALPEMEIHLQTNAEKGTITIQDTGIGMTQEELVSNLGTIARSGSKAFLDALQNQAEASSKIIGQFGVGFYSAFMVADRVEVYSRSAAPGSLGYQWLSDGSGVFEIAEASGVRTGTKIIIHLKSDCKEFSSEARVRDVVTKYSNFVSFPLYLNGRRMNTLQAIWMMDPKDVREWQHEEFYRYVAQAHDKPRYTLHYKTDAPLNIRSIFYVPDMKPSMFDVSRELGSSVALYSRKVLIQTKATDILPKWLRFIRGVVDSEDIPLNLSRELLQESALIRKLRDVLQQRLIKFFIDQSKKDAEKYAKFFEDYGLFMREGIVTATEQEVKEDIAKLLRYESSALPSGQLTSLSEYASRMRAGTRNIYYLCAPNRHLAEHSPYYEAMKKKDTEVLFCFEQFDELTLLHLREFDKKKLISVETDIVVDHYKEEKFEDRSPAAECLSEKETEELMAWMRNVLGSRVTNVKVTLRLDTHPAMVTVLEMGAARHFLRMQQLAKTQEERAQLLQPTLEINPRHALIKKLNQLRASEPGLAQLLVDQIYENAMIAAGLVDDPRAMVGRLNELLVKALERH
binding [1]: no binding (condition: with DTT)
binding [2]: binds

B4: recombinant human TRAP1 C261S (natural protein, UniProt Q12931 60-704, looked up)
chain: STQTAEDKEEPLHSIISSTESVQGSTSKHEFQAETKKLLDIVARSLYSEKEVFIRELISNASDALEKLRHKLVSDGQALPEMEIHLQTNAEKGTITIQDTGIGMTQEELVSNLGTIARSGSKAFLDALQNQAEASSKIIGQFGVGFYSAFMVADRVEVYSRSAAPGSLGYQWLSDGSGVFEIAEASGVRTGTKIIIHLKSDSKEFSSEARVRDVVTKYSNFVSFPLYLNGRRMNTLQAIWMMDPKDVREWQHEEFYRYVAQAHDKPRYTLHYKTDAPLNIRSIFYVPDMKPSMFDVSRELGSSVALYSRKVLIQTKATDILPKWLRFIRGVVDSEDIPLNLSRELLQESALIRKLRDVLQQRLIKFFIDQSKKDAEKYAKFFEDYGLFMREGIVTATEQEVKEDIAKLLRYESSALPSGQLTSLSEYASRMRAGTRNIYYLCAPNRHLAEHSPYYEAMKKKDTEVLFCFEQFDELTLLHLREFDKKKLISVETDIVVDHYKEEKFEDRSPAAECLSEKETEELMAWMRNVLGSRVTNVKVTLRLDTHPAMVTVLEMGAARHFLRMQQLAKTQEERAQLLQPTLEINPRHALIKKLNQLRASEPGLAQLLVDQIYENAMIAAGLVDDPRAMVGRLNELLVKALERH
notes: as for B3
binding [5]: no binding (condition: with DTT)

B5: recombinant human TRAP1 C261S/C573R double mutant (protein, UniProt Q12931 60-704)
chain: STQTAEDKEEPLHSIISSTESVQGSTSKHEFQAETKKLLDIVARSLYSEKEVFIRELISNASDALEKLRHKLVSDGQALPEMEIHLQTNAEKGTITIQDTGIGMTQEELVSNLGTIARSGSKAFLDALQNQAEASSKIIGQFGVGFYSAFMVADRVEVYSRSAAPGSLGYQWLSDGSGVFEIAEASGVRTGTKIIIHLKSDSKEFSSEARVRDVVTKYSNFVSFPLYLNGRRMNTLQAIWMMDPKDVREWQHEEFYRYVAQAHDKPRYTLHYKTDAPLNIRSIFYVPDMKPSMFDVSRELGSSVALYSRKVLIQTKATDILPKWLRFIRGVVDSEDIPLNLSRELLQESALIRKLRDVLQQRLIKFFIDQSKKDAEKYAKFFEDYGLFMREGIVTATEQEVKEDIAKLLRYESSALPSGQLTSLSEYASRMRAGTRNIYYLCAPNRHLAEHSPYYEAMKKKDTEVLFCFEQFDELTLLHLREFDKKKLISVETDIVVDHYKEEKFEDRSPAAERLSEKETEELMAWMRNVLGSRVTNVKVTLRLDTHPAMVTVLEMGAARHFLRMQQLAKTQEERAQLLQPTLEINPRHALIKKLNQLRASEPGLAQLLVDQIYENAMIAAGLVDDPRAMVGRLNELLVKALERH
binding [6]: no binding
binding [7]: no binding
